From article PMC6361588, “Exploration of CTCF post-translation modifications uncovers Serine-224 phosphorylation by PLK1 at pericentric regions during the G2/M transition” come the findings set out here.

The data set has as its target T1, FLAG-CTCF-6xHis wild type (UniProt Q61164).
T1 sequence (looked up, limits assumed): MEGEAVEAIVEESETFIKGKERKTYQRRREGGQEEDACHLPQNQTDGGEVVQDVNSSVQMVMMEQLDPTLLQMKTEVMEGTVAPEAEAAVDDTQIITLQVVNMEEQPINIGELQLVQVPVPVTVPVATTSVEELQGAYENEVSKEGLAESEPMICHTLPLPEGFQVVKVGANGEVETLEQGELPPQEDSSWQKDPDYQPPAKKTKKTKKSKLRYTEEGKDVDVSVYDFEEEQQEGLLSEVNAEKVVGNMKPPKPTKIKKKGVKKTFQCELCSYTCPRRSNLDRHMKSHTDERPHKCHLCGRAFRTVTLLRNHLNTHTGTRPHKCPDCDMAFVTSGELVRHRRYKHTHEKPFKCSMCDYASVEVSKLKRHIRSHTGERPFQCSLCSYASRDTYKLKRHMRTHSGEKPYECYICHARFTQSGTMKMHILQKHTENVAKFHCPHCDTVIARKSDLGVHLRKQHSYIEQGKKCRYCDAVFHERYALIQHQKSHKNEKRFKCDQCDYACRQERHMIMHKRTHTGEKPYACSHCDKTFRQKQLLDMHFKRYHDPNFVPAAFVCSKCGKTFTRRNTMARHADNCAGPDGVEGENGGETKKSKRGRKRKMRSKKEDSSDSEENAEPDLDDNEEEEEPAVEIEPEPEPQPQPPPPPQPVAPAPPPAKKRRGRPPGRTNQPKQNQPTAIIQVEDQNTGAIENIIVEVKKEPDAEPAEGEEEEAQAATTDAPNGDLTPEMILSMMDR
The experiment in a line: EMSA. The settings on record: 0.5, 1 or 2 pmol protein; EMSA as in Sun et al., 2013; recombinant protein; protein details: N-terminal FLAG, C-terminal 6xHis. A general note: In EMSA bound probe runs differently from free probe, usually more slowly.

Construct, isoform or probe ends are uncertain for at least one entry. At least one verdict rests on a figure or table, not on a statement of the authors. Protein sequences can lack the tags named with them.

“CTATGCATTAGGTTTGGGTGTTATACCCGTGTAGGCCAGCAGAGGGTGTCGGATCCCAAGGAAACCAAGTTACAGACGCC (double strand) [RS14C]”: the binding result is “binds”.
